Assay in all cases: protein microarray (ProtoArray v5.0), streptavidin-Alexa Fluor 647
What all share (settings): 3'-biotin; 20 mM Tris (pH 7.5), 5 mM MgCl2, 100 mM KCl, 0.1% Tween-20, A/T-rich and random oligonucleotide blockers; temperature not stated; high values mean tight binding

Assay [1] has as its system MLX (human).
The test system of assay [2] is MMP12 (human).
For assay [3], the target named is T1, MOBKL1A (UniProt Q7L9L4).
T1 sequence: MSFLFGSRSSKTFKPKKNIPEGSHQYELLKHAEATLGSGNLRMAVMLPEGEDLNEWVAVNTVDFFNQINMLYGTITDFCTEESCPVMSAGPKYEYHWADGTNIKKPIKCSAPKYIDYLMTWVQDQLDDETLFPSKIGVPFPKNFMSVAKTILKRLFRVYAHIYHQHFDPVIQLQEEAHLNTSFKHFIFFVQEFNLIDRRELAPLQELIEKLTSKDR

Assay [4] deals with MOGAT3 (human).
For assay [5], the target named is MORF4L1 (UniProt Q9UBU8).
Assay [6] relates to MPHOSPH6 (human).
The subject of assay [7] is MR1 (human).
In assay [8] the test system is MRPL43 (human).
Assay [9] has as its system MRPS16 (human).
The target of assay [10] is MRPS6 (UniProt P82932).
Assay [11] relates to MRS2L (human).
The subject of assay [12] is MTAP (human).
Assay [13] deals with MTMR1 (human).
Assay [14] concerns MTMR2 (human).
Assay [15] has as its system MYCBP (human).
In assay [16] the test system is Malate dehydrogenase, cytoplasmic (human).
Assay [17] relates to Malcavernin (human).
The subject of assay [18] is Mammaglobin-A (human).
Assay [19] concerns Mannose-6-phosphate receptor-binding protein 1 (human).
The test system of assay [20] is Mediator of RNA polymerase II transcription subunit 22 (human).

“And” between values parts separate entries of the source, which are not always exact repeats. Identical values can stand only once. This is one part of the list. For some assays here: Construct or isoform of the protein are uncertain.

Among the data in PMC5996148 are binding signal values, retold here.

As for “GGTGACAGGGGTATGGGGAGGGG [G4-2 biotinylated (Ct1)]”, the binding signal was -0.401 z-score and -0.404 z-score in [1]; -0.386 z-score in [2]; -0.382 z-score in assay [3]; -0.401 z-score in assay [4]; 3.09 z-score in assay [5]; -0.371 z-score in [6]. In addition, the binding signal was -0.372 z-score in assay [7]; -0.363 z-score in assay [8]; -0.373 z-score in [9]; 5.37 z-score in assay [10]; -0.398 z-score in assay [11]; -0.383 z-score and -0.37 z-score in assay [12]. The binding signal was -0.382 z-score in assay [13]; -0.41 z-score in assay [14]; -0.396 z-score in [15]; -0.363 z-score in [16]; -0.392 z-score in [17]; -0.394 z-score in [18]. Besides, the binding signal in [19] was -0.403 z-score; in assay [20], -0.396 z-score.
